# The list shows a part of the results.
# Protein sequences, listed by entry. Tags and fused reporters are not part of them. Lines headed by an entry give the natural chain unless they say otherwise; changes in a name come on top.
# UniProt P21695: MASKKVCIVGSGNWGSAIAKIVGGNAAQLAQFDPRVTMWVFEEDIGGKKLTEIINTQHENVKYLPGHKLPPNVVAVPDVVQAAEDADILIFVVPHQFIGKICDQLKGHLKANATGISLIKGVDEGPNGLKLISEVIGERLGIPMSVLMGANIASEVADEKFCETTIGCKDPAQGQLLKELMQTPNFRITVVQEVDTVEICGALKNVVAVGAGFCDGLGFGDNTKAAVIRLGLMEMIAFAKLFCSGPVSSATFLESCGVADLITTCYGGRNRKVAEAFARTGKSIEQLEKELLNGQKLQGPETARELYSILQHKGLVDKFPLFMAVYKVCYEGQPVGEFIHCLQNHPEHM
# UniProt Q13227: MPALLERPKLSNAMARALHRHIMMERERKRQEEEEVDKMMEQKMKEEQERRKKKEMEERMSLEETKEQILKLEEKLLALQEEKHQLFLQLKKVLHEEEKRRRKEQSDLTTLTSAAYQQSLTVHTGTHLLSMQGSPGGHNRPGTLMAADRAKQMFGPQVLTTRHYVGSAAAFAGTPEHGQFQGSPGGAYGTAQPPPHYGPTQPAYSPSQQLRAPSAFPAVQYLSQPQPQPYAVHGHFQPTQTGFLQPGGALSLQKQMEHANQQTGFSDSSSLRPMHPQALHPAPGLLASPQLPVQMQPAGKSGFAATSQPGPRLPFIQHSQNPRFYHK
# UniProt Q4ZG55: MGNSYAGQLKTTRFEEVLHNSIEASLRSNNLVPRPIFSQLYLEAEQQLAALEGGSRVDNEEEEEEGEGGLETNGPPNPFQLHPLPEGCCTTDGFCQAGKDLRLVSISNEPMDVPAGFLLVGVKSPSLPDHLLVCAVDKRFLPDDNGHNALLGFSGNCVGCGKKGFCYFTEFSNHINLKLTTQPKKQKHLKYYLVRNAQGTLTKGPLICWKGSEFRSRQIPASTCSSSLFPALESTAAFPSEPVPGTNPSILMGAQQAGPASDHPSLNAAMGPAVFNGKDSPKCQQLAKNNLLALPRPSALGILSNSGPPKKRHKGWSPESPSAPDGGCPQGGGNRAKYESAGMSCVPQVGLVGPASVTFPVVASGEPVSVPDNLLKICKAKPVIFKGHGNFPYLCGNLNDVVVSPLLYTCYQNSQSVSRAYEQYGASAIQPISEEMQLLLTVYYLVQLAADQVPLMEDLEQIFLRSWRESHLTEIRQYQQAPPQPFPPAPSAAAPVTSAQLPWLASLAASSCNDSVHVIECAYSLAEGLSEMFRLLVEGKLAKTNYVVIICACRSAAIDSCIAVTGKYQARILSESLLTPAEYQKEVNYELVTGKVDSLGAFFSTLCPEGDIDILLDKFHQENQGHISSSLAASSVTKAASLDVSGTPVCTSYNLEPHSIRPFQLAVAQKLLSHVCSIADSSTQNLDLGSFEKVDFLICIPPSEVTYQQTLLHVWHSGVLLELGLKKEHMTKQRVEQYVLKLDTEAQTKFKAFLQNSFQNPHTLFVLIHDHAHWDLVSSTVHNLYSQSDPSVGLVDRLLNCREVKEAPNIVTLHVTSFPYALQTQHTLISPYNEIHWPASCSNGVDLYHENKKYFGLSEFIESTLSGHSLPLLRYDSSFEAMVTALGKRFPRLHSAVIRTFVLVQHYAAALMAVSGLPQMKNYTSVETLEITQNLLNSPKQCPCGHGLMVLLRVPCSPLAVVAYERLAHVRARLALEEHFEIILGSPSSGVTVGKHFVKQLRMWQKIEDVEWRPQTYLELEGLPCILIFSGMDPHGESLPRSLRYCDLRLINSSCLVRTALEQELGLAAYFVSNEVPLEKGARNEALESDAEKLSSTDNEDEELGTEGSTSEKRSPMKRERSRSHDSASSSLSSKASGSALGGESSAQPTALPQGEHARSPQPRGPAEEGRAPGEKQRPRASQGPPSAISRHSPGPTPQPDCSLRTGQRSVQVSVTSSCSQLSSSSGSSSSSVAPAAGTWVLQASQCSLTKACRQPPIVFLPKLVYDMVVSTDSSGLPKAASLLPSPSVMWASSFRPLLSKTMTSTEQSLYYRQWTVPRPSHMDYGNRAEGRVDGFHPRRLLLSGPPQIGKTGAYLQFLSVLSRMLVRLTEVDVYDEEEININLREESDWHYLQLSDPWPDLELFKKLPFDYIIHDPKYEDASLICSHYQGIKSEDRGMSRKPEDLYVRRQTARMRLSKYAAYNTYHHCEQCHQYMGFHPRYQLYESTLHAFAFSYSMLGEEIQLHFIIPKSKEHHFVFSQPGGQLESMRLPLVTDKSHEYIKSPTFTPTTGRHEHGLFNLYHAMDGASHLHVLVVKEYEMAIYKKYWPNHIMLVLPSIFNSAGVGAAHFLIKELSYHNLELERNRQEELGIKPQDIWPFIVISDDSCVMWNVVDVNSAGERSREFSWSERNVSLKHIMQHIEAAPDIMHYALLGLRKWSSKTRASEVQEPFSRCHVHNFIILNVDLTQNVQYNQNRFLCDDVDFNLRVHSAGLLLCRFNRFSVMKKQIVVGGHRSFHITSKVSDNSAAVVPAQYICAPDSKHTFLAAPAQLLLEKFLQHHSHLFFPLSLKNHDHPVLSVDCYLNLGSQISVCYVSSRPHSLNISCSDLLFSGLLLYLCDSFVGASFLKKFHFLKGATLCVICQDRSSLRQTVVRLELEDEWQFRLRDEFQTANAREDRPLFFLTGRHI
# UniProt Q8NBJ4: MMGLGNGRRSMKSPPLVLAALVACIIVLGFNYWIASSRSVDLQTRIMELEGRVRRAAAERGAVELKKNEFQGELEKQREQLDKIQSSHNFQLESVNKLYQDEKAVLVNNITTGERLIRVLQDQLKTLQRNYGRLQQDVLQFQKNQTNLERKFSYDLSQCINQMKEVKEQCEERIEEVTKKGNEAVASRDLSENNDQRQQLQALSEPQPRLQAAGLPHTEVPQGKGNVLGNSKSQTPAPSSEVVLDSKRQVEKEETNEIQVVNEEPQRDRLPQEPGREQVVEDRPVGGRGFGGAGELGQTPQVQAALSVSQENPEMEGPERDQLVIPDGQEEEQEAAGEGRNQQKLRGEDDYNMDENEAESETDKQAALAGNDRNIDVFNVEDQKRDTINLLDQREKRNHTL
# UniProt Q9NZD2: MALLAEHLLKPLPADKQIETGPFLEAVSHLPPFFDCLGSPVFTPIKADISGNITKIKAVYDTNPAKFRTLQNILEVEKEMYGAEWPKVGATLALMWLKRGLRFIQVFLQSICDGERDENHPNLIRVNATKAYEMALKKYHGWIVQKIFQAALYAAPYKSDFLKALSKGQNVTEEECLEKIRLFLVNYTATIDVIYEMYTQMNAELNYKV
# UniProt A6NDN3: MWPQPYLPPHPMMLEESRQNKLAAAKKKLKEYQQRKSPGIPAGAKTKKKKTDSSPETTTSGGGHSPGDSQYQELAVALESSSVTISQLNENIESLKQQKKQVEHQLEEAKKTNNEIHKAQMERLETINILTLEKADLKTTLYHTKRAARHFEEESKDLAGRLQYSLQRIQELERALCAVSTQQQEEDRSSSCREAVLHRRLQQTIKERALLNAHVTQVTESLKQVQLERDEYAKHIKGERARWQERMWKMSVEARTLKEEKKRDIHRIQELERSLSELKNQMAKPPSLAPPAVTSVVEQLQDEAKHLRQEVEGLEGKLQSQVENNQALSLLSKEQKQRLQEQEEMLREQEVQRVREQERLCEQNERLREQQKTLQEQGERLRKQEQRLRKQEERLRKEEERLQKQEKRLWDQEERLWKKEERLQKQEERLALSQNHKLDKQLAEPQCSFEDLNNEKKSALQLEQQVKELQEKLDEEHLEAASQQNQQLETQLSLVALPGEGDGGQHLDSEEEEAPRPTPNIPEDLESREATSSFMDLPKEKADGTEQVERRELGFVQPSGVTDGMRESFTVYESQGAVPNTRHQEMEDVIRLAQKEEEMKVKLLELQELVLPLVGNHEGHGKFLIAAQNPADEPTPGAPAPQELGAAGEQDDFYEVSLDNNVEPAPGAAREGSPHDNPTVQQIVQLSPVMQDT
# UniProt Q6ZS86: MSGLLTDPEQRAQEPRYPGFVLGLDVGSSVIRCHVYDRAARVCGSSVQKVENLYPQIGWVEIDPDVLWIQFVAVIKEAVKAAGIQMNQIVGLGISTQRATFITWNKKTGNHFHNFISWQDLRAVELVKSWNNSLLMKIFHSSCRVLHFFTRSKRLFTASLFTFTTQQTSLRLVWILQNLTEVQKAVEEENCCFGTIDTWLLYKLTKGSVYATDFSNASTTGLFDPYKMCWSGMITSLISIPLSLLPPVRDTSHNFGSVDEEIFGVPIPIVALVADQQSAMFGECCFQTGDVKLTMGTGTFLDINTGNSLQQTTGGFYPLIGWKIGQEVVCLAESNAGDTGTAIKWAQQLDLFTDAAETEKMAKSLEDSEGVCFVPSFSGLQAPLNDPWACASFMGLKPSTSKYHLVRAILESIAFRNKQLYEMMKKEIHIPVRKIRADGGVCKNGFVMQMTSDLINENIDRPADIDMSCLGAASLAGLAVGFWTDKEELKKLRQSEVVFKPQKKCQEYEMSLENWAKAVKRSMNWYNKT
# UniProt Q5T3I0: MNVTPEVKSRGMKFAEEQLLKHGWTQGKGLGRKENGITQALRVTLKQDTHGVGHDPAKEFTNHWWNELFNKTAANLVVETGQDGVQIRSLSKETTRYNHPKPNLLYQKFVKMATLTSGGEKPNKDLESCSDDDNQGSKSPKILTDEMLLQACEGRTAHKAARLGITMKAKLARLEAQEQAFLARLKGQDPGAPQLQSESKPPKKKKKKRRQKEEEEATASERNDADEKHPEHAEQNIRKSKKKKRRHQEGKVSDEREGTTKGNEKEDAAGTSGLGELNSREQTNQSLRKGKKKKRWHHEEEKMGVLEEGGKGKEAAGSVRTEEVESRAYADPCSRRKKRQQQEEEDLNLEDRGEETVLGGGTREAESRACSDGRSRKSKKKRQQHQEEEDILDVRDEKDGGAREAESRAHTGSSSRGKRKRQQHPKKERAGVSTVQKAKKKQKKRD
# UniProt Q8TD30: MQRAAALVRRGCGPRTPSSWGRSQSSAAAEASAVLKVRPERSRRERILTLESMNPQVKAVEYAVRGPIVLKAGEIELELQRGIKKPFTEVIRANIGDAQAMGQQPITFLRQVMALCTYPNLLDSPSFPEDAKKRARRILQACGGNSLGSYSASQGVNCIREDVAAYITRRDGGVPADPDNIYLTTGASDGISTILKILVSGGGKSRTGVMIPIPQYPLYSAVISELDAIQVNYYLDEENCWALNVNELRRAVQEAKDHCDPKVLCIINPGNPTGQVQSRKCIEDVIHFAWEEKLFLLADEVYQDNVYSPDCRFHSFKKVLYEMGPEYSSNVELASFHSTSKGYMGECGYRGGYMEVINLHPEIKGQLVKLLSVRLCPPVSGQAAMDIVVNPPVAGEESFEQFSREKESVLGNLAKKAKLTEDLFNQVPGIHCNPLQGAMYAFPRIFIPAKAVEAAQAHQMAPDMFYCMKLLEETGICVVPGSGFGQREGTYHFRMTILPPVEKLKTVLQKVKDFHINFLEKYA
# UniProt Q9UJJ9: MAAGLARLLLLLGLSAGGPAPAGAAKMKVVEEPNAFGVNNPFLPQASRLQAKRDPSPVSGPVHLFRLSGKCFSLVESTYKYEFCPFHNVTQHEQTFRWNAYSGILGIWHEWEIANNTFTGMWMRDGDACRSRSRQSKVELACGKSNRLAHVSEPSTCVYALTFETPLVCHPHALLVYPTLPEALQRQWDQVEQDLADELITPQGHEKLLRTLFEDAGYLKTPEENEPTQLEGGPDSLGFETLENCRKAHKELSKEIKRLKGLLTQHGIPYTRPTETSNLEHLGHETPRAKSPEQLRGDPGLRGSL
# UniProt P22352, whole entry, looked up: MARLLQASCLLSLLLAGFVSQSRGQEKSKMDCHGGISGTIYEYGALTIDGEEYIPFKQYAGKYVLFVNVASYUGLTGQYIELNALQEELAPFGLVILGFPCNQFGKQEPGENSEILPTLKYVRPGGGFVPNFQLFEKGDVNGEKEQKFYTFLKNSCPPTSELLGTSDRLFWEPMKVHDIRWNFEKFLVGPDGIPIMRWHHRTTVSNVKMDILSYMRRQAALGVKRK
# UniProt I6L899: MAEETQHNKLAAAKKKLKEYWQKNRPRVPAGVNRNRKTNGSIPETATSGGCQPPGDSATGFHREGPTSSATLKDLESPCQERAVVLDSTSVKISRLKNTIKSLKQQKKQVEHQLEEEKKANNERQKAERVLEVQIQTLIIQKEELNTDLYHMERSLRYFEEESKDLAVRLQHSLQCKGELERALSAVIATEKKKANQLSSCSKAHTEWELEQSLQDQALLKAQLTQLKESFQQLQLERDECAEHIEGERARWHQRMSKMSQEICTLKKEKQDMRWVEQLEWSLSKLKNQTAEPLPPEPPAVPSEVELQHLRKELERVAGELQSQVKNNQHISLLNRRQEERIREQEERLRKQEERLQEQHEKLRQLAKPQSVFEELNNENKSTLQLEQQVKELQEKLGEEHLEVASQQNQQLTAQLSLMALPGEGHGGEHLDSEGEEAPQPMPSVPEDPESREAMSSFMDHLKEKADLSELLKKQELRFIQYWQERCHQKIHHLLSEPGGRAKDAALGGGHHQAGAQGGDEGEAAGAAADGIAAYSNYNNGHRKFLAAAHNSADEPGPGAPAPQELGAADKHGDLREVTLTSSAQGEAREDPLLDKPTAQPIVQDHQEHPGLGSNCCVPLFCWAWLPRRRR
# Compound: CN1CCN(c2nc(C3=C(c4c[nH]c5ccccc45)C(=O)NC3=O)c3ccccc3n2)CC1 [sotrastaurin]
# Test: log2 fold change, soluble protein after heating vs DMSO (PISA); higher = thermal stabilisation; K562 cells, 10 uM, 30 min; active = over 0.2 and 3.5 SD of the protein, either way, in both replicates (recomputed)
# How it was run: (§1)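 K562 cells at 2×10^6 cells/mL were given 10 μM compound for 30 min. Aliquots then went through 3 min of heating across 48°C-58°C, were pooled, and were extracted in PBS with 0.5% NP-40 at 4°C, and the supernatant after 21,000xg for 90 min was quantified by TMTpro 16plex LC-MS/MS with channel sums equalised. Thermal stability relative to control samples, from duplicates, is given as log2 fold change.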
row,Target,log2 fold change
1,GLCE (UniProt O94923),inactive: 0.004
2,GPD1 (UniProt P21695),inactive: 0.065
3,GIGYF1 (UniProt O75420),inactive: 0.072
4,GPS2 (UniProt Q13227),inactive: -0.007
5,GREB1 (UniProt Q4ZG55),inactive: -0.175
6,GOLM1 (UniProt Q8NBJ4),inactive: 0.193
7,GNL3 (UniProt Q9BVP2),inactive: 0.03
8,GOPC (UniProt Q9HD26),inactive: 0.01
9,GOLPH3L (UniProt Q9H4A5),inactive: -0.089
10,GLTP (UniProt Q9NZD2),inactive: 0.094
11,GPAM (UniProt Q9HCL2),inactive: 0.258
12,GINM1 (UniProt Q9NU53),inactive: -0.096
13,GOLGA6B (UniProt A6NDN3),inactive: 0.068

# Compound: CN1CC[C@H](c2c(O)cc(O)c3c(=O)cc(-c4ccccc4Cl)oc23)[C@H](O)C1 [alvocidib]
# Test: as above
# How it was run: as §1
row,Target,log2 fold change
1,GLCE (UniProt O94923),inactive: 0.077
2,GPAA1 (UniProt E9PLG8),inactive: 0.049
3,GLS2 (UniProt Q9UI32),inactive: -0.301
4,GIGYF1 (UniProt O75420),inactive: 0.033
5,GIT2 (UniProt Q14161),inactive: -0.118
6,GK5 (UniProt Q6ZS86),inactive: -0.019
7,GOLM1 (UniProt Q8NBJ4),inactive: 0.125
8,GLE1 (UniProt Q53GS7),inactive: 0.263
9,GORASP1 (UniProt Q9BQQ3),inactive: -0.046
10,GP6 isoform 3 (UniProt Q9HCN6),inactive: -0.038
11,GLTP (UniProt Q9NZD2),inactive: -0.139
12,GPS1 (UniProt A8K070),inactive: -0.006
13,GPATCH4 isoform 3 (UniProt Q5T3I0),inactive: 0.303
14,GPT2 (UniProt Q8TD30),inactive: -0.13
15,GNPTG (UniProt Q9UJJ9),inactive: -0.003
16,GOSR1 (UniProt E9PCW1),inactive: -0.024
17,GPX3 (UniProt P22352),inactive: 0.089

# Compound: CN1CCc2c(c3ccccc3n2Cc2ccc(C(=O)NO)cc2)C1 [Tubastatin A]
# Test: as above
# How it was run: as §1
row,Target,log2 fold change
1,GPD1 (UniProt P21695),inactive: -0.027
2,GPAA1 (UniProt E9PLG8),inactive: -0.015
3,GPS2 (UniProt Q13227),inactive: 0.033
4,GK5 (UniProt Q6ZS86),inactive: -0.183
5,GREB1 (UniProt Q4ZG55),inactive: 0.264
6,GOLM1 (UniProt Q8NBJ4),inactive: 0.404
7,GNL3 (UniProt Q9BVP2),inactive: 0.304
8,GOPC (UniProt Q9HD26),inactive: 0.177
9,GPATCH2L (UniProt Q9NWQ4),inactive: 0.253
10,GLTP (UniProt Q9NZD2),inactive: 0.003
11,GPAM (UniProt Q9HCL2),inactive: 0.041
12,GNL2 (UniProt Q13823),inactive: 0.06
13,GPATCH4 isoform 3 (UniProt Q5T3I0),inactive: -0.073
14,GPT2 (UniProt Q8TD30),inactive: 0.146
15,GNPTG (UniProt Q9UJJ9),inactive: 0
16,GOLGA8R (UniProt I6L899),inactive: 0.253
17,GPX3 (UniProt P22352),inactive: 0.137

# Compound: CNC(=O)C1=CC=CC=C1NC2=NC(=NC=C2Cl)NC3=C(C=C(C=C3)N4CCOCC4)OC
# Test: as above
# How it was run: as §1
row,Target,log2 fold change
1,GLCE (UniProt O94923),inactive: 0.023
2,GPD1 (UniProt P21695),inactive: -0.298
3,GIT2 (UniProt Q14161),inactive: -0.068
4,GPS2 (UniProt Q13227),inactive: 0.008
5,GSDME (UniProt O60443),inactive: -0.032
6,GPNMB (UniProt Q14956),inactive: -0.221
7,GOLGA1 (UniProt Q92805),inactive: 0.043
8,GREB1 (UniProt Q4ZG55),inactive: -0.113
9,GOLM1 (UniProt Q8NBJ4),inactive: 0.028
10,GP6 isoform 3 (UniProt Q9HCN6),inactive: -0.05
11,GOPC (UniProt Q9HD26),inactive: 0.216
12,GPATCH2L (UniProt Q9NWQ4),inactive: -0.136
13,GLTP (UniProt Q9NZD2),inactive: -0.034
14,GPAM (UniProt Q9HCL2),inactive: 0.138
15,GINM1 (UniProt Q9NU53),inactive: 0.003
16,GPS1 (UniProt A8K070),inactive: 0.004
17,GNPTG (UniProt Q9UJJ9),inactive: 0.019
18,GOSR1 (UniProt E9PCW1),inactive: -0.02
19,GOLGA6B (UniProt A6NDN3),inactive: -0.066
20,GOLGA8R (UniProt I6L899),inactive: -0.148
21,GPX3 (UniProt P22352),inactive: 0.029

# Compound: CNC(=O)c1ccc(Nc2ncc(C(F)(F)F)c(NCc3nccnc3N(C)S(C)(=O)=O)n2)cc1 [defactinib]
# Test: as above
# How it was run: as §1
row,Target,log2 fold change
1,GPD1 (UniProt P21695),inactive: -0.072
2,GSE1 (UniProt Q14687),inactive: 0.027
3,GPS2 (UniProt Q13227),inactive: -0.079
4,GK5 (UniProt Q6ZS86),inactive: -0.055
5,GOLGA1 (UniProt Q92805),inactive: -0.042
6,GREB1 (UniProt Q4ZG55),inactive: -0.008
7,GOLM1 (UniProt Q8NBJ4),inactive: 0.064
8,GNL3 (UniProt Q9BVP2),inactive: 0.005
9,GOPC (UniProt Q9HD26),inactive: 0.033
10,GOLPH3L (UniProt Q9H4A5),inactive: -0.206
11,GLTP (UniProt Q9NZD2),inactive: -0.133
12,GPATCH4 isoform 3 (UniProt Q5T3I0),inactive: 0.627
13,GPT2 (UniProt Q8TD30),inactive: -0.148
14,GRK6 isoform 2 (UniProt P43250),inactive: -0.046
15,GOLGA6B (UniProt A6NDN3),inactive: -0.211
16,GOLGA8R (UniProt I6L899),inactive: -0.197
17,GPX3 (UniProt P22352),inactive: 0.094

# From the supplement of paper PMC10849652
